Results as given in article PMC7488163.
No constants are given. Whether binding was seen depends on the method and setting. Binding seen in cells or lysates may run through a third protein. Some entries that bind do so weakly or less than the wild type.

Protein sequences, listed by entry. Tags and fused reporters are not part of them.
UniProt P70399: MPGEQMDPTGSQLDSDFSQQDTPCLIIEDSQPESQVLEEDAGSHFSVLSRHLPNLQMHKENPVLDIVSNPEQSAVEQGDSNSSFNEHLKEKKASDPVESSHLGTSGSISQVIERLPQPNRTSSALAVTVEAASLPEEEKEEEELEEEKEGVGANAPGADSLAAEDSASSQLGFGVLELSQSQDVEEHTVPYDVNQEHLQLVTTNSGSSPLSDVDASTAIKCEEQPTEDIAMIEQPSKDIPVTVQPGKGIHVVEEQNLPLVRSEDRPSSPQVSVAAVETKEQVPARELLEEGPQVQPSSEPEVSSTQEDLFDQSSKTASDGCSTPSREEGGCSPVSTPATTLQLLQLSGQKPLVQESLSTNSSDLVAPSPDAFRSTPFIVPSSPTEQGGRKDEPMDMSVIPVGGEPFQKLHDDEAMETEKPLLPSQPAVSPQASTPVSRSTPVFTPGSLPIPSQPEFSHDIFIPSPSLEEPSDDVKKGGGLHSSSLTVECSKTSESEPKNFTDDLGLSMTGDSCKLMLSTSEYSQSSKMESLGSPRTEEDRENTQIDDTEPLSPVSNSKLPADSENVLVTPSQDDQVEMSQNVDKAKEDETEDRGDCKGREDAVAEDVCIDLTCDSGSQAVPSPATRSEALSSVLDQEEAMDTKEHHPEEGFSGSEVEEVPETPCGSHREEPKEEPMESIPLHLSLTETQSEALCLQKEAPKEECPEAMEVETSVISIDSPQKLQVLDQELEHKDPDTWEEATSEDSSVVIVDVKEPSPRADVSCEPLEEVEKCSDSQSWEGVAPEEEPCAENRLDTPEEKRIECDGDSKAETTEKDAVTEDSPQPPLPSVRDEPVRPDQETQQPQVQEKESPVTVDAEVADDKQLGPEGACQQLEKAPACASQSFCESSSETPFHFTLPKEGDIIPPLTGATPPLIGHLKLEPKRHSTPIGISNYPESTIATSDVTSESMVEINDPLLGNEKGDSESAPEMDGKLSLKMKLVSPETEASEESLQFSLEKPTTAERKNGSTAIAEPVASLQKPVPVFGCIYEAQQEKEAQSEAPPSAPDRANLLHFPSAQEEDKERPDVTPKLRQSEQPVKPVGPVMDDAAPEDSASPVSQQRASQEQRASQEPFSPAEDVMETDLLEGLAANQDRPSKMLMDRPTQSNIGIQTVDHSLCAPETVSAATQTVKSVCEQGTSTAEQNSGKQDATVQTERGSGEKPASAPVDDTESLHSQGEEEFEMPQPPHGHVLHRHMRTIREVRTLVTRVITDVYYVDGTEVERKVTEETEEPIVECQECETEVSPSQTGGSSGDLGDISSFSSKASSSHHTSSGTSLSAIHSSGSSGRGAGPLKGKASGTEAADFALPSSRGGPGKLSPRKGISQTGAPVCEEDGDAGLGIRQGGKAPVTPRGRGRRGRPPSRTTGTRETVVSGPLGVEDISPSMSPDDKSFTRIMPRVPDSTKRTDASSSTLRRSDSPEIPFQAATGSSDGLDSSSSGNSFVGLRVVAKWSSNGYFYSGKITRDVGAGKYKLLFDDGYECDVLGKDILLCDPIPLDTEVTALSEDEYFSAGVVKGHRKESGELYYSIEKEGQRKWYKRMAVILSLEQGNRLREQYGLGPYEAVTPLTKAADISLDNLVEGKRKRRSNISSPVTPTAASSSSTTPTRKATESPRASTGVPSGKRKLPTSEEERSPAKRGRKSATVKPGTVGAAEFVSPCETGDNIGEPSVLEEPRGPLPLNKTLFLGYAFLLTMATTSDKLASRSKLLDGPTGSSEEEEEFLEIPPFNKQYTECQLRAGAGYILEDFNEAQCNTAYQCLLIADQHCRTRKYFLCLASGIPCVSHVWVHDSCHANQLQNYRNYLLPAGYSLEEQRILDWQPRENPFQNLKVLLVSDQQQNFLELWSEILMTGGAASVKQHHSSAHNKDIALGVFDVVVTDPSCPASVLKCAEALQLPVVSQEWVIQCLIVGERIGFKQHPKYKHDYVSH

Experiments:
Experiment in all cases: co-IP; GFP-Trap MA magnetic beads on lysates of transfected NSC-34 cells (20 mM Tris-HCl, 150 mM NaCl, 2 mM EDTA, 1% NP40, pH 7.4), 500 ug lysate, overnight at 4 °C; immunoblotting for 53BP1
[1] = biological target: TDP-43 Q331K-EGFP (UniProt Q13148)
[2] = biological target: TDP-43 wildtype-EGFP (UniProt Q13148)
[3] = biological target: TDP-43 A315T-EGFP (UniProt Q13148)

binding [1]: binds
binding [2]: binds
binding [3]: binds
Substance: p53-binding protein 1 (from UniProt P70399 1-1969)
